This is an account of results in the supplement of paper PMC6411743.

By UniProt entry, the sequences of proteins in these tests, tags left out.
UniProt P34972, whole entry: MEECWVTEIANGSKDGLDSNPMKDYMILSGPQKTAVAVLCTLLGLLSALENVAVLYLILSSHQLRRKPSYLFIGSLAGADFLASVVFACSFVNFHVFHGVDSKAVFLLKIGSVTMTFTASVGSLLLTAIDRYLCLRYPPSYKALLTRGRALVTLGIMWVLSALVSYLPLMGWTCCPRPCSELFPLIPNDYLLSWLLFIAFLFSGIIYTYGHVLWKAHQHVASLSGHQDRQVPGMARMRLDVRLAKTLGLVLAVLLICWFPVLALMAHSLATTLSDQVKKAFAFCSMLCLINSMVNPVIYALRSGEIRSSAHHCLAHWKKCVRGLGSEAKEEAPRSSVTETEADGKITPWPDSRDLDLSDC

± gives the standard deviation of the averaged measurements. Only a part is listed here, and it is no random draw. Most values lie at the level of the controls, where differences are scatter.

This test has as its target CB2 (UniProt P34972). Put plainly: NP40-soluble protein abundance relative to vehicle (solubility fold change) (ratio); higher = more soluble protein in presence of ATP. In outline: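 In three independent experiments, Jurkat crude lysate made by Dounce homogenisation was treated for 10 min at room temperature and then 3 min at 37 °C with eight concentrations ranging from 0.1 to 10 mM. It was then solubilised with 0.8% NP40 plus benzonase for 60 min at 4 °C and ultracentrifuged. The supernatant was TMT-labelled for LC-MS/MS, and each value is the fold change against the detergent-processed vehicle for the same replicate, using vsn-normalised intensities.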

Take `Nc1ncnc2c1ncn2[C@@H]1O[C@H](COP(=O)(O)OP(=O)(O)OP(=O)(O)O)[C@@H](O)[C@H]1O` [adenosine triphosphate]: the NP40-soluble protein abundance runs as follows: (concentration: 0.1mM) 1 ± 0.067; (concentration: 0.5mM) 1.1 ± 0.12.
